# Laboratory results published in PubChem BioAssay AID2685 (National Center for Advancing Translational Sciences (NCATS), 2010).
# The other results are listed elsewhere or left out. These are further read-outs of the screen, such as a control signal, another cell line or another target. No call is given for them. The list favours compounds with an active or inconclusive main result. The note in brackets gives the kind of curve behind each potency; many fits are weak.
# Assay: qHTS Assay for Lipid Storage Modulators in Drosophila S3 Cells;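 for cell number change: cells counted by Cell Tracker Red CMTPX staining in the red channel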
# Settings: BODIPY lipid droplet fluorescence, 18-24 h; for cell number change: measured here: cell count max response, cells fed with added oleic acid
# Outline: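 Drosophila S3 cells got compounds at several concentrations plus oleic acid (400 uM solution). Laser-scanning cytometry with 488 nm excitation read lipid droplets at 500-530 nm and cells at 575-640 nm. Percent activity was relative to 20 uM Triacsin C.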
# [1] = measured here: cell number channel AC50, cells fed with added oleic acid
# [2] = measured here: lipid fluorescence (Fed channel) AC50, cells fed with added oleic acid
SMILES,cell number change [%],AC50 [1],AC50 [2]
COc1ccc(NC(=S)NNC(=S)Nc2cccc(C(F)(F)F)c2)cc1,-33,"20.6 µM [falling, single point]","20.6 µM [falling, single point]"
CN(C(=O)CSc1nnc(Cc2cccc3ccccc23)n1N)C1CCS(=O)(=O)C1 (stereo not given),10.3,–,"6.51 µM [rising, single point]"
O=C(COc1ccccc1)Nc1ccc2c(c1)nc1n2CCOC1,3.79,–,"29.1 µM [rising, single point]"
COc1ccc(Cn2c(-c3ccc(Cl)cc3)c[n+]3ccccc23)cc1,7.24,–,"1.84 µM [rising, partial curve]"
COc1ccc(-c2nc(-c3ccc4c(c3)OCO4)[nH]c2-c2ccc(OC)cc2)cc1,-21.2,–,"0.00517 µM [rising, full curve, poor fit]"
O=C(NC(Cc1ccccc1)C(=O)O)/C(=C\c1ccc(F)cc1)NC(=O)c1ccco1 (stereo not given),7.92,–,–
O=[N+]([O-])c1ccc(OCCO)nc1,-14,–,–
COC(=O)C/C(O)=C(/N=Nc1cccc(C(F)(F)F)c1)C(=O)OC,–,"6.51 µM [falling, single point]",–
CCCCC(=O)Nc1ccc(C(=O)NCCc2ccc(S(N)(=O)=O)cc2)cc1,8.1,"0.146 µM [rising, full curve, poor fit]",–
COc1ccccc1C1CCN(Cc2ccc3ccccc3c2)CC1,-56.9,"29.1 µM [falling, single point]","29.1 µM [falling, single point]"
O=S(=O)(c1ccccc1)N1CCN(Cc2cccc(Cl)c2)CC1,16.1,–,–
Cc1cc(=O)oc2cc(OCc3ccc(C(=O)OCC(=O)Nc4ccc(N(C)C)cc4)cc3)ccc12,-51.3,"1.03 µM [falling, full curve]",–
O=C(c1cc(-c2ccc(Br)cc2)nc2ccccc12)N1CCN(c2ccccc2O)CC1,–,"0.58 µM [falling, single point]",–
CC(NC(=O)Nc1ccc(Cl)cc1)c1ccccc1 (stereo not given),-1.4,–,"16.4 µM [falling, single point]"
COc1cccc(N=Cc2c(O)c3ccccc3oc2=O)c1,3.59,–,"29.1 µM [falling, single point]"
O=C(CN1C(=O)COc2ccccc21)Nc1ccc(F)cc1,-0.759,–,"29.1 µM [falling, single point]"
CCc1c(O)nc(SCC(=O)N2CCCCC2)n(-c2ccccc2C)c1=O,-33.8,"20.6 µM [falling, single point]",–
Cc1cc(NC(=O)Cn2nc(C(=O)O)c3ccccc3c2=O)c([N+](=O)[O-])cc1C,22.7,–,"11.6 µM [falling, partial curve]"
Cc1nn(C)c2c(=O)c(=O)c2n(C)[nH]1,–,"4.11 µM [falling, partial curve]","1.16 µM [falling, full curve]"
COc1cc(C(=O)NNC(=O)c2n[nH]c3ccccc23)cc(OC)c1OC,-14.5,–,"0.13 µM [rising, partial curve, poor fit]"

SMILES,cell number change [%],AC50 [1],AC50 [2]
CCOC(=O)c1cc(CC)sc1NC(=O)c1ccc2c(c1)OCCO2,-3.97,–,"13 µM [rising, partial curve, poor fit]"
CC1(C)CC(NC(=O)CC2CCCCC2)CC(C)(C)N1,0.833,–,"5.17 µM [falling, full curve]"
Nc1c(C(=O)NCc2ccc3c(c2)OCO3)nnn1Cc1ccc(Br)cc1,33.2,"0.0731 µM [rising, full curve]","0.092 µM [rising, full curve]"
CCOc1cc(Br)c(CC(=O)NC2CCCCCC2)cc1OCC,-7.89,–,–
O=S(=O)(NCC(c1ccc2c(c1)OCO2)N1CCOCC1)c1ccc(Cl)cc1 (stereo not given),-5.98,–,"1.3 µM [rising, full curve, poor fit]"
CN(C)C(=O)N1CCN(C(=O)c2ccco2)CC1,-24.8,–,"25.9 µM [falling, partial curve]"
CCCCN(C)c1c(N2CCC(C(=O)OCC)CC2)c(=O)c1=O,20.8,–,"0.731 µM [rising, partial curve, poor fit]"
CCOc1cccc(C(=O)N(Cc2ccc(F)cc2)C2CCS(=O)(=O)C2)c1 (stereo not given),–,–,"29.1 µM [rising, single point]"
NC(=O)CSc1n[nH]c(=O)n1CCc1ccccc1,28.4,–,–
COc1cccc(C(=O)Nc2cc(NC(=O)c3cccs3)ccc2C)c1,-32,"16.4 µM [falling, single point]",–
CCOC(=O)N1CCN(c2ccc(N3C(=O)CCCC3=O)cc2[N+](=O)[O-])CC1,-2.34,"0.92 µM [falling, full curve, poor fit]","0.82 µM [falling, full curve]"
Cc1ccccc1Nc1nc(N)nc(COC(=O)c2ccc(O)cc2)n1,7.09,–,–
COC(=O)Cc1c(C)c2c(OCc3nn[nH]n3)cc(C)cc2oc1=O,2.03,–,"0.731 µM [falling, full curve, poor fit]"
Cc1ccc(NC(=S)N2CCN(CCN3C(=O)c4cccc5cccc(c45)C3=O)CC2)cc1,1.61,"0.731 µM [rising, single point]","0.58 µM [rising, full curve, poor fit]"
CCOc1ccccc1NC(=O)NC(=O)N(C)S(=O)(=O)c1ccc(C)cc1,13.3,–,"4.61 µM [rising, single point]"
CNC(=S)N/N=C/c1ccc(-c2ccc(Cl)c([N+](=O)[O-])c2)o1,-28.8,–,"29.1 µM [falling, single point]"
CC(NC(=O)C(=O)NCC1CCCO1)c1ccccc1 (stereo not given),16.6,–,"0.092 µM [rising, full curve, poor fit]"
CCOC(=O)CCc1c(C)nc2cc(-c3ccccc3OC)[nH]n2c1=O,-47.9,"20.6 µM [falling, partial curve]","20.6 µM [falling, partial curve]"
Cc1c(Nc2cc(N3CCCC(C)C3)c3nonc3c2[N+](=O)[O-])c(=O)n(-c2ccccc2)n1C (stereo not given),51.5,–,–
COc1ccc(OC)c(-c2csc(NC(=O)Cc3ccccc3)n2)c1,14.1,–,"0.13 µM [falling, partial curve, poor fit]"

SMILES,cell number change [%],AC50 [1],AC50 [2]
Oc1ccccc1N1CCN(C(=S)NCc2ccccc2)CC1,13.4,–,–
COC(=O)CSc1nc2c(c(-c3ccco3)c1C#N)CCCC2,-42.4,"9.2 µM [falling, partial curve]","20.6 µM [falling, partial curve]"
COc1ccc(CCNC(=O)C(C)n2nc(C)c3c(C)n(-c4ccc(C)cc4)nc3c2=O)c(OC)c1 (stereo not given),-20.6,–,"1.84 µM [rising, partial curve]"
CC1C/C(=N/N=C2/NC(=O)CS2)CC(C)(C)C1 (stereo not given),0.0265,–,–
O=C1N(c2ccc3c(c2)OCCO3)C(c2ccccc2)C1(F)F (stereo not given),22.1,–,"6.51 µM [rising, partial curve]"
Cc1ccc(NC(=O)c2cncc(Br)c2)c([N+](=O)[O-])c1,22.4,–,"29.1 µM [rising, single point]"
COC(=O)c1ccc(NC(=O)CSC2=NC(=O)C(c3ccccc3)C(=O)N2)cc1 (stereo not given),82.3,"0.731 µM [rising, full curve, poor fit]",–
CCOc1ccccc1OCC(=O)NC1CCCCC1,38.7,"3.26 µM [rising, full curve]",–
COc1ccc(NS(=O)(=O)c2cc(NC(=O)c3cc(=O)c4ccccc4o3)ccc2OC)cc1,-22.7,–,"29.1 µM [falling, single point]"
CC1=N/C(=C\c2ccc3c(c2)OCO3)C(=O)N1c1ccc(C(=O)O)cc1,2.77,–,–
O=C(COC(=O)c1ccccc1O)NCC1COc2ccccc2O1 (stereo not given),19.5,–,"2.31 µM [rising, partial curve, poor fit]"
CN1CCc2c1nc1ccccc1c2N (tested in a mixture with another compound),–,–,"6.51 µM [falling, single point]"
Cc1noc(C)c1CSCC(=O)Nc1cc(Cl)ccc1N1CCCCC1,–,"2.91 µM [rising, single point]",–
CCn1cc(C(=O)OCc2ccc(F)cc2)c(=O)c2ccc(C)nc21,64.4,"29.1 µM [rising, single point]","0.326 µM [rising, full curve]"
O=C(CCl)Nc1ccccc1Sc1ccc(Cl)cc1,8.58,–,"1.84 µM [falling, partial curve]"
CCCCn1c(SCC(=O)Nc2cc(C(F)(F)F)cc(C(F)(F)F)c2)nnc1C(CC)N(C)C (stereo not given),-40.8,"9.2 µM [falling, partial curve, poor fit]","2.59 µM [falling, full curve]"
CCOc1ccc(NC(=O)COC(=O)CCN2C(=O)C3CC=CCC3C2=O)cc1OCC (stereo not given),-26.1,–,"3.26 µM [rising, single point]"
O=S(=O)(NCC1CCCO1)c1cc(Cl)ccc1Cl (stereo not given),44.1,"10.3 µM [rising, partial curve, poor fit]",–
CCCCCCSc1ccc([C@H]2N[C@@](C)(C(=O)OC)[C@H]3C(=O)N(CC)C(=O)[C@@H]23)cc1,-40.4,"32.6 µM [falling, single point]","23.1 µM [falling, partial curve, poor fit]"
COc1ccc(CC(=O)NNC(=O)c2cc(Cl)ccc2OC)cc1,96.8,"29.1 µM [rising, single point]",–

# An excerpt from above in order of heavy-atom count, smallest number first.
SMILES,cell number change [%],AC50 [1],AC50 [2]
NC(=O)CSc1n[nH]c(=O)n1CCc1ccccc1,28.4,–,–
CCOc1ccccc1NC(=O)NC(=O)N(C)S(=O)(=O)c1ccc(C)cc1,13.3,–,"4.61 µM [rising, single point]"
Cc1ccc(NC(=S)N2CCN(CCN3C(=O)c4cccc5cccc(c45)C3=O)CC2)cc1,1.61,"0.731 µM [rising, single point]","0.58 µM [rising, full curve, poor fit]"
Cc1c(Nc2cc(N3CCCC(C)C3)c3nonc3c2[N+](=O)[O-])c(=O)n(-c2ccccc2)n1C (stereo not given),51.5,–,–
